# Structures can show the parent of a compound that is named as a salt. Some of the results follow. This data set is noisy: repeats of one test often differ as much as different tests do.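 About 40 Schistosoma mansoni schistosomula per well were imaged over time in bright field and compared with 0.1% DMSO wells. A drug counts as a hit if its Mahalanobis distance reaches 2.47 or more, three standard deviations above the DMSO control mean. Degeneracy is the fraction of worms scored opaque.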
# Test system: Schistosoma mansoni schistosomula
# Test: Mahalanobis distance of static-rate-frequency phenotype descriptors from DMSO controls (dimensionless); higher = stronger phenotypic change versus DMSO
# Conditions: 10 µM; 72 h
row,SMILES,Mahalanobis distance
1,Cc1ccsc1/C=C/C1=NCCCN1C [Morantel Citrate],active: 2.51
2,CCCCCCCCCCCCCCCCOP(=O)([O-])OCC[N+](C)(C)C [Miltefosine],inactive: 2.19
3,CN(Cc1cnc2nc(N)nc(N)c2n1)c1ccc(C(=O)N[C@@H](CCC(=O)O)C(=O)O)cc1 [Methotrexate],inactive: 1.95
4,N[C@@H](Cc1ccc(O)cc1)C(=O)O [Tyrosine],inactive: 1.37
5,CCN(CC)CCNc1ccc(CO)c2sc3ccccc3c(=O)c12 [hycanthone],inactive: 1.83
6,CSc1ccc2c(c1)N(CCC1CCCCN1C)c1ccccc1S2 (stereo not given) [thioridazine],active: 3.32
7,CC1=C(/C=C/C(C)=C/C=C/C(C)=C\C(=O)O)C(C)(C)CCC1 [Isotretinoin],inactive: 1.97
8,CC/C(=C(/CC)c1ccc(O)cc1)c1ccc(O)cc1 [Diethylstilbestrol],inactive: 1.89
9,CCCCC1(COC(=O)CCC(=O)O)C(=O)N(c2ccccc2)N(c2ccccc2)C1=O [Suxibuzone],inactive: 1.55
10,COc1cc(NC(C)CCCN)c2ncccc2c1 (stereo not given) [primaquine],active: 3.25
11,CC(=O)OCC(=O)[C@@]1(OC(C)=O)[C@@H](C)C[C@H]2[C@@H]3C[C@H](F)C4=CC(=O)C=C[C@]4(C)[C@@]3(F)[C@@H](O)C[C@@]21C [Diflorasone Diacetate],active: 3.16
12,C[C@]1(Cn2ccnn2)[C@H](C(=O)O)N2C(=O)C[C@H]2S1(=O)=O [Tazobactam],active: 2.81
13,CCN(CC)CCOCCOC(=O)C(CC)(CC)c1ccccc1 [Oxelaidin Citrate],inactive: 2
14,CC(CN(C)C)CN1c2ccccc2Sc2ccccc21 (stereo not given) [Trimeprazine Tartrate],inactive: 1.72
15,CC(=O)OCC(=O)[C@H]1CC[C@H]2[C@@H]3CCC4=CC(=O)CC[C@]4(C)[C@H]3CC[C@]12C [Desoxycorticosterone Acetate],active: 2.57
16,C=CCOC(Cn1ccnc1)c1ccc(Cl)cc1Cl (stereo not given) [Enilconazole],inactive: 1.48
17,CN(C)CC/C=C1/c2ccccc2COc2ccc(CC(=O)O)cc21 [Olopatadine Hcl],inactive: 2.36
18,COc1cc(/C=C/C(=O)N2CCCCCCC2)cc(OC)c1OC [Cinoctramide],inactive: 2.04
19,c1ccc(CN(CC2=NCCN2)c2ccccc2)cc1 [Antazoline],active: 3.06
20,CC(=O)N(CC(O)CN(C(C)=O)c1c(I)c(C(=O)NCC(O)CO)c(I)c(C(=O)NCC(O)CO)c1I)c1c(I)c(C(=O)NCC(O)CO)c(I)c(C(=O)NCC(O)CO)c1I (stereo not given) [Iodixanol],inactive: 1.53

# A stretch of the results above, as a working copy:
row,SMILES,Mahalanobis distance
8,CC/C(=C(/CC)c1ccc(O)cc1)c1ccc(O)cc1 [Diethylstilbestrol],inactive: 1.89
9,CCCCC1(COC(=O)CCC(=O)O)C(=O)N(c2ccccc2)N(c2ccccc2)C1=O [Suxibuzone],inactive: 1.55
